The values below come from the supplement of paper PMC7125110.

± gives the standard error. Many entries were measured with a wide error.

First the molecules themselves.
B1: glmS ribozyme (parent)
chain: AUAAAAGCGCCAGAACUACAGAAAUGUAGUUGACGAGGAGGAGGUUUAUCGAAUUUUCGGCGGAUGCCUCCAAA

The variants in one series derive from B1. In words: self-cleavage kobs at 160 uM GlcN6P; higher = faster cleavage; RNA array. The settings on record: with glucosamine-6-phosphate. In a few lines: (§1)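 kobs was derived by fitting per-tile medians to one- or two-exponential decays after normalising signals to baseline and to non-cleaving reference variants. Those signals came from barcoded ribozyme variants transcribed in situ by E. coli RNA polymerase on sequenced MiSeq chips, followed through a hybridised Cy3 probe at 37 °C and imaged over ~14 h. Glucosamine-6-phosphate (40 μM to 10 mM) in HEPES/KCl/Mg(OAc)2 buffer was flowed in. Weighted Michaelis–Menten fits across concentrations then gave kcat and KM.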
As to AUAAAAGCGCCGGUACUACAGAAAUGUAGUUGACGAGGAGGAGGUUUAUCGAAUUUUCGGCGGAUGCCUCCAAA [A12G A14U], the “self-cleavage kobs at 160 uM GlcN6P” value worked out at 2.19e-05 ± 1.3e-05 s⁻¹. Regarding AUAAAAGCGCCAGACCUACAGAAAUGUAGUUGACGAGGAGGAGGUUUUUCUAAUUUCCGGCGGAUGCCGCCAAA [A15C A48U G51U U57C U69G], the “self-cleavage kobs at 160 uM GlcN6P” value worked out at 4.08e-05 ± 3.2e-05 s⁻¹. Regarding AUAAACGCGCCUGAACUACAGAAAUGUAGUUGACGAGGAGGAGGUUUAUCGAAUUUUCGGCGGAUGCCUCCAAA [A6C A12U], the “self-cleavage kobs at 160 uM GlcN6P” value was 1.44e-05 ± 1.2e-05 s⁻¹. With AUAAAAGCGCUAGAACUACAGAAAUGUAGUUGACGAGGAGGAGGUUUAUCGAAUUUUCGGGGGAUGACUCCAAA [C11U C61G C67A], the “self-cleavage kobs at 160 uM GlcN6P” value worked out at 3.66e-05 ± 2.4e-05 s⁻¹.

As to AUAAAAGCGCCAGCACUACAGAAAUGUAGUUGACGAGGAGGAGGUUUAUCGAAUUUUCGGCGGAUGCGUCCAAA [A14C C68G], the “self-cleavage kobs at 160 uM GlcN6P” value is 2.53e-05 ± 2.2e-05 s⁻¹.

As to AUAAAAGCGCCAGAACUACAGAAAUGUAGUUAACGAGGAGAAGGUUUAUCGAAUUUUCGGCGGAUGCCUCCAAA [G32A G41A], the “self-cleavage kobs at 160 uM GlcN6P” value was found to be 1.4e-05 ± 1.2e-05 s⁻¹. Same read-out and setting: the same measure for AUAAAAGCGCCAGAACUACAGAAAUGUAGCUGACGAGGAGGAGGUUUAUCGAAUUUUCGGCGGAUGCAUCCAAA [U30C C68A]: 2.29e-05 ± 1.2e-05 s⁻¹; for AUAAAAGCGCCGGAUCUACAGAAAUGUAGUUGACGAGGAGGAGGUUUAUCGAAUUUUCGGCGGAUGCCUGCAAA [A12G A15U C70G]: 2.35e-05 ± 2.3e-05 s⁻¹. Still for that read-out and setting: the same measure for AUAAAAGCGCCAGAACUACAGAAAUGUAAUUGACGAGGAGGAGGUUUAUCGGAUUUUCGGCGGAUGCCUCCAAA [G29A A52G]: 2.72e-05 ± 1.4e-05 s⁻¹. On the same count and under the same terms, the same measure for AUAAAAGCGCCAGAACUACAGAAAUGUAAACGACGAGGAGGAGGUUUAUCGAAUUUUCGGCGGAUGCCUCCAAA [G29A U30A U31C]: 3.68e-05 ± 2e-05 s⁻¹. As to AUAAAAGCGCCAGAACUACAGAAAUGUAAUUGACGAGGAGGAGGUUUAUCGAAUUUUCGGCGGAUGCCUCAAAA [G29A C71A], the “self-cleavage kobs at 160 uM GlcN6P” value turned out to be 0.000143 ± 0.0001 s⁻¹. Same read-out and setting: the figure for AUAAAAGCGCCAAAACUACAGAAAUGUAGUUGACGAGGAGGAGGUUUAUCGAAUUUUGGGCGGAUGCCUCCAAA [G13A C58G] is 2.44e-05 ± 1.5e-05 s⁻¹; for AUAAAAGCGCAAGAACUACAGAAAUGUAGUUGACGAGGAGGAGGUUUUUCGAAAUUCCGGCAGAUGCCUCCAAA [C11A A48U U54A U57C G62A] it is 0.00226 ± 0.0019 s⁻¹; for AUAAAAGCGCCAGAACUACAGAAAUGUAAUUGACGAGGAGGAGGUUUAUCGAAUUUUGGGCGGAUGCCUCCAAA [G29A C58G] it is 1.78e-05 ± 1.7e-05 s⁻¹.

As for AUAAAAGCGCGAGAACUACAGAAAUGUAGUUGACGAGGAGGAGGUUUAUCGAAUGUUCCGCGGAUGCCUCCAAA [C11G U55G G59C], the “self-cleavage kobs at 160 uM GlcN6P” value was 7.14e-05 ± 4.3e-05 s⁻¹. For the variant AUAAAAGCGUAAGAACUACAGAAAUGUAGUUGACGAGGAGGAGGUUUAUCGAAUUUUCGGCGGAUGCCUACAAA [C10U C11A C70A], the “self-cleavage kobs at 160 uM GlcN6P” value amounted to 3.42e-05 ± 2.1e-05 s⁻¹. Take AUAAAAUCGCCAGAACUACAGAAAUGUAGUUGACGAGGAGGAGGUUUAUCGAAUUUUCGGCGGAUGCCGCCAAA [G7U U69G]: the “self-cleavage kobs at 160 uM GlcN6P” value is 2.14e-05 ± 2.1e-05 s⁻¹. Still for that read-out and setting: the same measure for AUAAAAGCGCAAGAACUACAGAAAUGUAGUUGACGAGGAGGAGGUUUAUCGAAUUUUCAGGGGAUGCCUACAAA [C11A G59A C61G C70A]: 2.52e-05 ± 2.2e-05 s⁻¹; for AUAAAAGCGCCAGUACUACAGAAAUGUAGCUGACGAGGAGGAGGUUUAUCGAAUUUUCGGCGGAUGCCUGCAAA [A14U U30C C70G]: 4.29e-05 ± 2.6e-05 s⁻¹.

Turning to AUAAAAGCGCCGGAACUACAGAAAUGUAGUUGACGAGGAGGAGGUUUAUCGAAUUUUCGGCGGAUGUCUCCAAA [A12G C67U], the “self-cleavage kobs at 160 uM GlcN6P” value worked out at 2.89e-05 ± 1.5e-05 s⁻¹. For the variant AUAAAAGCGCCAGACCUACAGAAAUGUAGUUGACGAGGAGGAGGUUCAUCGAAUUUUCGGCGGAUGCCUCCAAA [A15C U47C], the “self-cleavage kobs at 160 uM GlcN6P” value was 1.89e-05 ± 1.1e-05 s⁻¹.

With AUAAAAGCGCCAGAAAUACAGAAAUGUAGUUGACGAGGAGGAGGUUUAUCGAAUUUUCGGCGGAUGCCUGCAAA [C16A C70G], the “self-cleavage kobs at 160 uM GlcN6P” value came to 2.74e-05 ± 1.7e-05 s⁻¹. Same read-out and setting: the same measure for AUAAAAGCGCCAGAUCUACAGAAAUGUAGUUGACGAGGAGGAGGUUUAUCGAAUUUUCGGCGGAUGCAUCCAAA [A15U C68A]: 2.08e-05 ± 1.7e-05 s⁻¹; for AUAAAAGCGACAGAACUACAGAAAUGUAGUUGACGAGGAGGAGGUUAAUCGAAUUUUCGGCGGAUGCCUGCAAA [C10A U47A C70G]: 4.91e-05 ± 3e-05 s⁻¹; for AUAAAAGCGCCAGAAUUACAGAAAUGUAGUUGACGAGGAGGAGGUUUAUAGAAUUUUCGGCGGAUGCCUCCAAA [C16U C50A]: 2.17e-05 ± 2.1e-05 s⁻¹. The same measure, in the same setting: the same measure for AUAAAAGCGCAAGAACUACAGAAAUGUAGUUGACGAGGAGGAGGUUUAUCGAAUUUUCAGCGGAUGCCUCCAAA [C11A G59A]: 2.85e-05 ± 1.7e-05 s⁻¹; for AUAAAAGCGCCGGAACUACAGAAAUGUAGUUGACGAGGAGGAGGUUUAUCGAACUUUCGGCGGAUGCCUCCAAA [A12G U54C]: 3.94e-05 ± 2.2e-05 s⁻¹. Same read-out and setting: the figure for AUAAAAGCGCCAUAACUACAGAAAUGUAGUUGACGAGGAGGAGGUUUAUCGAAUUUUCGGCGGAUGCCUCAAAA [G13U C71A] is 2.35e-05 ± 1.3e-05 s⁻¹.

Variants of B1 are the subject of a further series. In words: self-cleavage kobs at 2500 uM GlcN6P; higher = faster cleavage; RNA array. The settings on record: with glucosamine-6-phosphate. In a few lines: as §1
With AUAAAAGCGCCAGCACUACAGAAAUGUAGUUGACGAGGAGGAGGUUUAUCGAAUUUUCGGCGGAUGCGUCCAAA [A14C C68G], the “self-cleavage kobs at 2500 uM GlcN6P” value came out at 1.68e-05 ± 1.4e-05 s⁻¹. Same read-out and setting: the same measure for AUAAAAGCGCCAGAACUACAGAAAUGUAGUUGACGAGGAGGAGGUUUAUCGAAUUUUCGGCGGAUGACUGUAAA [C67A C70G C71U]: 2.65e-05 ± 2.5e-05 s⁻¹; for AUAAAAGCGCCAGAACUACAGAAAUGUAAUUGACGAGGAGGAGGUUUAUCGAAUUUUGGGCGGAUGCCUCCAAA [G29A C58G]: 1.24e-05 ± 1.1e-05 s⁻¹. Still for that read-out and setting: the same measure for AUAAAAGCGCGAGAACUACAGAAAUGUAGUUGACGAGGAGGAGGUUUAUCGAAUGUUCCGCGGAUGCCUCCAAA [C11G U55G G59C]: 0.000375 ± 0.00024 s⁻¹; for AUAAAAGCGCCAGAACUACAGAAAUGUAGUUGACGAGGAGGAGGUUUAUCGAAUUUUCGGCGGAUGCCACAAAA [U69A C71A]: 2.58e-05 ± 1.4e-05 s⁻¹.

In the next series the parent is B1. In words: self-cleavage kobs at 640 uM GlcN6P; higher = faster cleavage; RNA array. The following applies: with glucosamine-6-phosphate. In a few lines:
as §1
For AUAAAAGCGCCAGAACUACAGAAAUGUAGUUGACGAGGAGGAGGUUUAUCGAAUUUUCGGCGGAUGACUGUAAA [C67A C70G C71U], the “self-cleavage kobs at 640 uM GlcN6P” value is 3.48e-05 ± 2.3e-05 s⁻¹. Still for that read-out and setting: the figure for AUAAAAGCGCCAGAACUACAGAAAUGUAGUUGACGAGGAGGAGGUUUAUCGAAUUUUCGGCGGAUGCCACAAAA [U69A C71A] is 2.5e-05 ± 1.5e-05 s⁻¹. As for AUAAAAGCGCCAGAACUACAGAAAUGUAGUUGACGAGGAGGAGGUUUAUCGAAUUUUCGGCGGGUGCCGCAAAA [A64G U69G C71A], the “self-cleavage kobs at 640 uM GlcN6P” value was determined as 3.78e-05 ± 3.1e-05 s⁻¹.
